The data set in a line: Host-guest interaction with bacitracin by 1H-NMR. It counts as binding. Conditions: same manner as Test Example 19.

Results on two compounds are retold here after patent US12714754B2, “Delivery of cyclic compound by using carrier” (priority 2018, dated 2026).

Each structure is given as a SMILES string.

`NCCNCCN` [DET, diethylenetriamine]: the “host-guest interaction with bacitracin (changes in 1H-NMR chemical shifts)” value is “intermolecularly interacts with the ring structure of bacitracin”. The entry for `NNc1nnc(NN)c2ccccc12` [dihydralazine] is “intermolecularly interacts with the ring structure of bacitracin”.
